Test results: article PMC9757077, “The B. subtilis Rok protein is an atypical H-NS-like protein irresponsive to physico-chemical cues”
pKd: −log10 of the molar value. For part of these data: Negatives hold for the conditions tested. For part of these data: At least one verdict rests on a figure or table, not on a statement of the authors. For part of these data: Protein sequences can lack the tags named with them. For at least one entry, the source does not settle the construct or the ends of the probe.

Legend:
[1] = molecular target: T1, Rok (Bacillus subtilis 168) (UniProt O34857); experiment: bridging pull-down; conditions: 0.27 uM Rok, TPM: 50 mM KCl, bridging: 50 mM KCl, 25 C, recombinant protein, residues 1-191, label: 32P
T1 sequence (looked up): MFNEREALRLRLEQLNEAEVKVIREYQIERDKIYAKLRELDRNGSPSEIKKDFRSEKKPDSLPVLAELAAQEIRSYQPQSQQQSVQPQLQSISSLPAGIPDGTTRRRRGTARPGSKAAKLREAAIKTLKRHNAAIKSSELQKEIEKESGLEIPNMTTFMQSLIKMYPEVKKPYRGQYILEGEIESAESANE

[2] = molecular target: T1, Rok (Bacillus subtilis 168); experiment: MST; conditions: MST: 10 mM Tris-HCl pH 8, 150 mM KCl, 5% glycerol, 0.05% Tween20, 0.08 mg/ml acetylated BSA, RT, 40 nM DNA, recombinant protein, residues 1-191, label: 5'-Cy5 top strand
[3] = molecular target: sRok (Bacillus subtilis (plasmid pLS20)) (UniProt E9RJ31); experiment: MST; conditions: MST: 10 mM Tris-HCl pH 8, 150 mM KCl, 5% glycerol, 0.05% Tween20, 0.08 mg/ml acetylated BSA, RT, 40 nM DNA, label: 5'-Cy5 top strand
[4] = bait N1, bridging read-out only

Row | Sequence | binding result [1, 4] | binding result ([1]; bait N1) | other results
1 | CTTAGTGGCAAATATATAATGTATAAGTTCTGGAGTAGTATGGTAATAACTATTTTATTTTCGATAGCTTGAATG (double strand) [75 bp prey] | no binding | – | –
2 | CGGCGCAAATTCGTGACCAGTTGCATCAGCTACTAGAGCTGTTTATCGCAGCATCGTAACAGGATAGTGAAGAAGACT (double strand) [MST specific 78 bp (TACTA)] | – | – | pKd ([2]; >35 mM MgCl2): 3.10; binding result ([3]; <20 mM MgCl2, Kd only in figure, no improvement over aspecific, recombinant protein): binds; binding result ([3]; >=20 mM MgCl2, too weak to fit, no improvement by TACTA site, recombinant protein): no binding
3 | GCAAATATATAATGTATAAGTTCTGGAGTAGTATGGTAATAACTATTTTA (double strand) [50 bp prey] | no binding | – | –
4 | CGGCGCAAATTCGTGACCAGTTGCATCAGCTGCGTGAGCTGTTTATCGCAGCATCGTAACAGGATAGTGAAGAAGACT (double strand) [MST aspecific 78 bp] | – | – | pKd ([2]; >25 mM MgCl2): 3.10; binding result ([3]; <20 mM MgCl2, Kd only in figure, recombinant …): binds; binding result ([3]; >=20 mM MgCl2, too weak to fit, recombinant protein): no binding
5 | TTTCTCCAATTGATTTAGTCTATTCGATATATGGACTCTTAGTGGCAAATATATAATGTATAAGTTCTGGAGTAGTATGGTAATAACTATTTTATTTTCGATAGCTTGAATGTTTATTTTCCCAGAGACATTAGGTGGTCTTTCAAACTC (double strand) [150 bp prey] | – | binds | –
6 | ATTTAGTCTATTCGATATATGGACTCTTAGTGGCAAATATATAATGTATAAGTTCTGGAGTAGTATGGTAATAACTATTTTATTTTCGATAGCTTGAATGTTTATTTTCCCAGAGACATTAGGTG (double strand) [125 bp prey] | – | binds | –
7 | GGAGTAGTATGGTAATAACTATTTT (double strand) [25 bp prey] | no binding | – | –
8 | TCTCTTCAAATGTTTTCTCCAATTGATTTAGTCTATTCGATATATGGACTCTTAGTGGCAAATATATAATGTATAAGTTCTGGAGTAGTATGGTAATAACTATTTTATTTTCGATAGCTTGAATGTTTATTTTCCCAGAGACATTAGGTGGTCTTTCAAACTCAATAATGTGGGT (double strand) [175 bp prey] | – | binds | –
